The source of these data is PubChem BioAssay AID1850 (Southern Research Specialized Biocontainment Screening …, 2009).

Where “and” joins values, the source holds several entries; their conditions need not be identical. Equal entries are not always repeated. The entries are a selection whose mix differs from that of the whole data set. Measured potencies and affinities stand elsewhere. Calls of active or inactive are those of the source. How the calls were made is not given here.

The test is described as follows: PhoP regulon inhibitors, Salmonella typhi PhoP promoter GFP reporter, confirmatory (AID 1850).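 Further: 0% = induced wells with vehicle and 100% = uninduced wells.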 Conditions: fluorescence, 4 h, at 50 µM, hits give high values.
By inhibition is commonly meant the change of the read-out against control, counted positive when it falls. Consider `CNCCCC12CCC(c3ccccc31)c1ccccc12`, for which the inhibition is inactive: -12% and inactive: 9.72%.
